# Results: patent US20180280393A1, “METHODS AND COMPOSITIONS FOR TREATMENT OF METASTATIC AND REFRACTORY CANCERS AND TUMORS” (The Wistar Institute of Anatomy and Biology, priority 2015, published 2018)
# Tests used:
# [1] = tested on: A2780 ovarian cancer cells; assay: Molecular screening of compounds on A2780 cell proliferation (resazurin fluorescence); type: cell-based; settings: Homo sapiens, 72 h; A2780 cells cultured 3 days; N/A = ambiguous curve fits or EC50 greater than the highest concentration tested (25 μM); read-out: EC5 - A2780 ovarian cancer cells
# Procedure: Cell proliferation assays—Cells were plated in 96-well plates. Compounds were added the next morning, and cell proliferation was measured 48 hrs later with the […] 96 MTS assay (Promega) according to the manufacturer's instructions. Molecular screening of compounds on A2780 cells was performed by adding compounds the morning after plating in 384-well plates and measuring proliferation 72 hrs later with resazurin fluorescence. Normalized percent inhibition (NPI) was calculated with respect to fluorescence values obtained with DMSO negative control and doxorubicin (5 μM) positive control as NPI=100%*(DMSO−compound)/(DMSO−doxorubicin). TCR ligation of human CD8 T cells
# (§1) EC50 values were calculated from normalized percent inhibition data using non-linear curve fitting in PRISM software.
# human T cells = assay: ConA-induced activation and expansion of human T cells (high-throughput screen); type: cell-based; settings: T-cell, 168 h; human T cells activated with ConA for 7 days; N/A = ambiguous curve fits or EC50 greater than the highest concentration tested (25 μM)
# Procedure: T cell stimulation—For human T cell proliferation assays, peripheral blood lymphocytes were obtained by leukapheresis/elutriation and Miltenyi bead-purified and K562 cells expressing human CD32 were generated as previously described^41. […] PBMCs were labeled with CELLTRACE Violet stain (Invitrogen) according to the manufacturer's instructions and cocultured with loaded K32 cells at a 10:1 T cells:K32 ratio or activated with ConA (2 μg/ml, Sigma). Proliferation of stimulated T cells was determined 7 days later by FACS and Division Index was calculated using FlowJo software.
# as §1
SMILES,EC50 [1],EC50 (human T cells)
CCc1cnn2c(NCc3ccc[n+]([O-])c3)cc(N3CCCC[C@H]3CCO)nc12 [SCH727965],2.94 µM,0.00273 µM
"Cc1ccc(NC(=O)c2ccc(CN3CCN(C)CC3)cc2)cc1Nc1nccc(-c2cccnc2)n1 [STI571 (imatinib), imatinib]",20.8 µM,–
